In patent US10085450B2, “Tetrazolinone compound and use thereof” (SUMITOMO CHEMICAL COMPANY, LIMITED, priority 2013, dated 2018):
Some of these results come from one statement about several compounds together.

What was measured:
Assay type in all cases: in vivo
[1] = tested on: barley net blotch fungus (Pyrenophora teres); test: Test Example 1: barley net blotch control, foliar spray before inoculation; conditions: 500 ppm water dilution sprayed on barley (NISHINOHOSHI) stems and leaves; spores inoculated after 2 days
[2] = tested on: wheat leaf blotch fungus (Septoria tritici); test: Test Example 4: wheat leaf blotch control, foliar spray before inoculation; conditions: 500 ppm water dilution sprayed on wheat (APOGEE) stems and leaves; spores inoculated after 4 days
[3] = tested on: kidney bean stem rot fungus (Sclerotinia sclerotiorum); test: Test Example 14: kidney bean stem rot control, foliar spray; conditions: 500 ppm water dilution sprayed on kidney bean (NAGAUZURA SAIYTOU); PDA medium with hyphae placed on leaves; four days after inoculation
[4] = tested on: barley leaf blotch fungus (Rhynchosporium secalis); test: Test Example 3: barley leaf blotch control, foliar spray before inoculation; conditions: 200 ppm sprayed on barley (NISHINOHOSHI) stems and leaves; spores inoculated after 2 days
[5] = tested on: cotton aphid (Aphis gossypii); test: Test Example 22: cotton aphid control on sprayed cucumber; conditions: 500 ppm active ingredient, 20 mL sprayed on cucumber with adults and larvae; after 6 days
[6] = tested on: wheat leaf blotch fungus (Septoria tritici); test: Test Example 5: wheat leaf blotch control, foliar spray after inoculation (with surfactant); conditions: 200 ppm water dilution containing a surfactant sprayed on wheat (APOGEE) 3 days after inoculation
[7] = tested on: cucumber target leaf spot fungus (Corynespora cassiicola); test: Test Example 10: cucumber target leaf spot control, foliar spray; conditions: 200 ppm water dilution sprayed on cucumber (SAGAMI HANJIRO); spores inoculated after air-drying
[8] = tested on: wheat leaf blotch fungus (Septoria tritici); test: Test Example 19: wheat leaf blotch control, foliar spray after inoculation; conditions: 200 ppm water dilution sprayed on wheat (APOGEE) 3 days after inoculation
[9] = tested on: kidney bean stem rot fungus (Sclerotinia sclerotiorum); test: Test Example 15: kidney bean stem rot control, foliar spray; conditions: 200 ppm water dilution sprayed on kidney bean (NAGAUZURA SAIYTOU); PDA medium with hyphae placed on leaves; four days after inoculation
[10] = tested on: soybean rust fungus (Phakopsora pachyrhizi); test: Test Example 13: soybean rust control, foliar spray before inoculation; conditions: 200 ppm water dilution sprayed on soybean (KUROSENGOKU); spores inoculated after 2 days

Row | Structure (SMILES) | area of lesion spots on the treated plant relative to that on an untreated plant [1] [%] | area of lesion spots on the treated plant relative to that on an untreated plant [2] [%] | area of lesion spots on the treated plant relative to that on an untreated plant [4] [%] | area of lesion spots on the treated plant relative to that on an untreated plant [6] [%] | area of lesion spots on the treated plant relative to that on an untreated plant [7] [%] | area of lesion spots on the treated plant relative to that on an untreated plant [8] [%] | further results
1 | COc1cccc(-n2nnn(C)c2=O)c1COc1cc(-c2ccccc2Cl)nn1C [present compound 1, 1-{2-[5-(2-chlorophenyl)-2-methyl-2H-pyrazol-3-yloxymethyl]-3-methoxyphenyl}-4-methyl-1,4-dihydro-tetrazol-5-one] | ≤ 30 | ≤ 30 |  |  |  |  | area of lesion spots on the treated plant relative to that on an untreated plant [3]: ≤ 30%
2 | Cc1cccc(-n2nnn(C)c2=O)c1COc1nc(-c2ccc(Cl)cc2)ns1 [present compound 12, 1-(2-{[3-(4-chlorophenyl)-1,2,4-thiadiazol-5-yl]oxymethyl}-3-methylphenyl)-4-methyl-1,4-dihydrotetrazol-5-one] |  |  | ≤ 30 |  |  |  | 
3 | Cc1cccc(-n2nnn(C)c2=O)c1COc1ccc(Br)s1 [present compound 14, 1-[2-(5-bromothiophen-2-yloxymethyl)-3-methylphenyl]-4-methyl-1,4-dihydrotetrazol-5-one] | ≤ 30 |  |  |  |  |  | 
4 | Cc1cccc(-n2nnn(C)c2=O)c1COc1ccc(-c2ccc(Cl)cc2)s1 [present compound 15, 1-{2-[5-(4-chlorophenyl)thiophen-2-yloxymethyl]-3-methylphenyl}-4-methyl-1,4-dihydrotetrazol-5-one] |  |  |  |  |  |  | control value [5]: ≥ 90%
5 | COc1ccccc1-c1coc(OCc2c(C)cccc2-n2nnn(C)c2=O)n1 [present compound 16, 1-(2-{[4-(2-methoxyphenyl)-1,3-oxazol-2-yloxy]methyl}-3-methylphenyl)-4-methyl-1,4-dihydrotetrazol-5-one] |  |  | ≤ 30 | ≤ 30 | ≤ 30 | ≤ 30 | 
6 | Cc1cccc(-n2nnn(C)c2=O)c1COc1nc(-c2ccc(Cl)cc2)co1 [present compound 17, 1-(2-{[4-(4-chlorophenyl)-1,3-oxazol-2-yloxy]methyl}-3-methylphenyl)-4-methyl-1,4-dihydrotetrazol-5-one] |  |  | ≤ 30 | ≤ 30 | ≤ 30 | ≤ 30 | 
7 | COc1ccc(-c2coc(OCc3c(C)cccc3-n3nnn(C)c3=O)n2)cc1 [present compound 18, 1-(2-{[4-(4-methoxyphenyl)-1,3-oxazol-2-yloxy]methyl}-3-methylphenyl)-4-methyl-1,4-dihydrotetrazol-5-one] |  |  | ≤ 30 | ≤ 30 |  | ≤ 30 | 
8 | Cc1cccc(-n2nnn(C)c2=O)c1COc1nc(-c2cccc(Cl)c2)co1 [present compound 19, 1-(2-{[4-(3-chlorophenyl)-1,3-oxazol-2-yloxy]methyl}-3-methylphenyl)-4-methyl-1,4-dihydrotetrazol-5-one] | ≤ 30 | ≤ 30 | ≤ 30 |  |  |  | 
9 | Cc1cccc(-n2nnn(C)c2=O)c1COc1nc(-c2ccccc2)co1 [present compound 20, 1-{2-[(4-phenyl-1,3-oxazol-2-yloxy)methyl]-3-methylphenyl}-4-methyl-1,4-dihydrotetrazol-5-one] |  |  | ≤ 30 |  | ≤ 30 |  | area of lesion spots on the treated plant relative to that on an untreated plant [9]: ≤ 30%
10 | Cc1cccc(-n2nnn(C)c2=O)c1COc1nc(-c2ccc(C#N)cc2)co1 [present compound 21, 1-(2-{[4-(4-cyanophenyl)-1,3-oxazol-2-yloxy]methyl}-3-methylphenyl)-4-methyl-1,4-dihydrotetrazol-5-one] | ≤ 30 | ≤ 30 | ≤ 30 |  | ≤ 30 |  | 
11 | Cc1cccc(-n2nnn(C)c2=O)c1CSc1nc(-c2ccccc2)co1 [present compound 22, 1-{2-[(4-phenyl-1,3-oxazol-2-ylthio)methyl]-3-methylphenyl}-4-methyl-1,4-dihydrotetrazol-5-one] | ≤ 30 | ≤ 30 | ≤ 30 |  | ≤ 30 |  | 
12 | Cc1cccc(-n2nnn(C)c2=O)c1CSc1nc(-c2ccc(Cl)cc2)co1 [present compound 23, 1-(2-{[4-(4-chlorophenyl)-1,3-oxazol-2-ylthio]methyl}-3-methylphenyl)-4-methyl-1,4-dihydrotetrazol-5-one] | ≤ 30 |  | ≤ 30 |  |  |  | area of lesion spots on the treated plant relative to that on an untreated plant [9]: ≤ 30%
13 | Cc1cccc(-n2nnn(C)c2=O)c1CSc1nc(-c2cccc(Cl)c2)co1 [present compound 24, 1-(2-{[4-(3-chlorophenyl)-1,3-oxazol-2-ylthio]methyl}-3-methylphenyl)-4-methyl-1,4-dihydrotetrazol-5-one] | ≤ 30 |  | ≤ 30 |  | ≤ 30 |  | 
14 | Cc1cccc(-n2nnn(C)c2=O)c1COc1cc(-c2ccc(Cl)cc2)n(C)n1 [present compound 25, 1-(2-{[1-methyl-5-(4-chlorophenyl)-1H-pyrazol-3-yloxy]methyl}-3-methylphenyl)-4-methyl-1,4-dihydrotetrazol-5-one] | ≤ 30 | ≤ 30 | ≤ 30 | ≤ 30 | ≤ 30 | ≤ 30 | area of lesion spots on the treated plant relative to that on an untreated plant [9]: ≤ 30%
15 | Cc1cccc(-n2nnn(C)c2=O)c1COc1nn(C)c(-c2ccc(Cl)cc2)c1C [present compound 29, 1-(2-{[1,4-dimethyl-5-(4-chlorophenyl)-1H-pyrazol-3-yloxy]methyl}-3-methylphenyl)-4-methyl-1,4-dihydrotetrazol-5-one] | ≤ 30 | ≤ 30 |  | ≤ 30 |  | ≤ 30 | area of lesion spots on the treated plant relative to that on an untreated plant [10]: ≤ 30%; area of lesion spots on the treated plant relative to that on an untreated plant [9]: ≤ 30%; control value [5]: ≥ 90%
16 | Cc1cccc(-n2nnn(C)c2=O)c1COc1nnc(-c2ccc(Cl)cc2)s1 [present compound 30, 1-(2-{[5-(4-chlorophenyl)-1,3,4-thiadiazol-2-yloxy]methyl}-3-methylphenyl)-4-methyl-1,4-dihydrotetrazol-5-one] | ≤ 30 |  | ≤ 30 |  | ≤ 30 |  | 
